Results are given in words; binding and its absence hold for the method and conditions named. Some binding calls cover weakened binding; strength is not graded here. Values belong to the binder of their own block, whether it stands above or below them.
Experiments:
[1] = target: huCTLA4 (antigen of the Octet experiments) (human) (UniProt P16410); test: BLI (Octet), summary of Table 5
[2] = target: human CTLA4-Fc fusion protein (biotinylated, used in the blocking studies) (human) (UniProt P16410); test: ELISA, plate-coated CTLA4-Ig, antibody in solution
[3] = target: human CTLA4-Fc fusion protein (biotinylated, used in the blocking studies) (human) (UniProt P16410); test: ELISA, antibody coated on plate, soluble CTLA4
[4] = target: human CTLA4-Fc fusion protein (biotinylated, used in the blocking studies) (human) (UniProt P16410); test: ELISA, antibody coated on plate, soluble CTLA4 as in FIG. 37
[5] = target: human CTLA4-Fc fusion protein (biotinylated, used in the blocking studies) (human) (UniProt P16410); test: capture ELISA as in FIG. 37: antibody coated on the plate at the given concentration, biotinylated CTLA4-Fc 0.25 µg/ml, HRP-streptavidin, OD450
[6] = target: mouse CTLA4-Fc fusion protein (mouse) (UniProt P09793); test: ELISA, plate-coated mCTLA4-Fc, biotinylated L3D10; weak, taken as non-specific signal
[7] = target: Control IgG1-Fc (human) [IgG part: P01857]; test: ELISA, plate-coated IgG1-Fc, biotinylated L3D10

By UniProt entry, the sequences of proteins in these tests, tags left out. Residues count along the entry.
UniProt P16410, residues 37-162: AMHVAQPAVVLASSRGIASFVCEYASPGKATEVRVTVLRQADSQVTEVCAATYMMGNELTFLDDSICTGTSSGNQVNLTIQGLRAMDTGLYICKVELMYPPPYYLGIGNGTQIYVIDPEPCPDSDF
UniProt P09793, residues 36-162: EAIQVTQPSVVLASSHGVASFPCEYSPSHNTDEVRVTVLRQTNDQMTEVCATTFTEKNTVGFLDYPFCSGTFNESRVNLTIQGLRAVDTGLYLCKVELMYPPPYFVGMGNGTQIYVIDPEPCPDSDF

binding [1]: binds
binding [2]: binds
binding [3]: binds
binding [4]: binds
binding [5]: binds
B1: Humanized HC3 + LC3 (PP4638) (antibody, IgG1, V domains shown)
VH: QVQLQESGPGLVKPSETLSLTCTVSGFSLTSYGLSWIRQPPGKGLEWIGYIWYDGNTNFHSPLKSRVTISVDTSKNQFSLKLSSVTAADTAVYYCAKTEGHYYGSNYGYYALDYWGQGTLVTVSS
VL: DIQMTQSPSSLSASVGDRVTITCRASENIYSNLAWYQQKPGKAPKLLIYAATSLQSGVPSRFSGSGSGTDFTLTISSLQPEDFATYYCQHLWGTPYTFGGGTKVEIK

binding [6]: binds
binding [7]: binds
B2: chimeric L3D10 antibody (antibody, V domains shown)
VH: QVQLKESGPGLVAPSQSLSITCTVSGFSLTSYGLSWVRQPPGKGLEWLGVIWYDGNTNFHSALISRLTISKDNSKSQVFLELNSLQTDDTATYYCAKTEGHYYGSNYGYYALDYWGQGTSVTVSS
VL: DIQMTQSPASLSVSVGETVTITCRASENIYSNLAWYQQKQGKSPQLLVYAATNLADGVPSRFSGSGSGTQYSLKINSLQSEDFGTYFCQHLWGTPYTFGGGTKLEIKR

From US20190127468A1
